# Experimental data reported in the supplement of paper PMC8728848.
# This is one part of the list.
# B1: PX14343E-bfa-545-24-545 (Bacteroides fragilis) (protein)
# chain: LDRYPQEELSDGSFWKTPDDANKVVSDLYGYLSTWDQDNDINSDNATMGIKWAAGNVSKGIYDPADQGWSGDYANVRQCNLILSKIDEIPDYPEADKTKALGQVYFFRAYIYFNLIRSFGDVPYIDKPLDLKDMEGITRMPRAEVYEKIMADFDKAIAALPTEWGASDYGRVTKGAAMAMKARAALYYGNWDTAATEAKNVMDLGLYELYDKDNTGKYAELFWEKADGCDEFILVTQFNYPDKTHYLMGWECFPTKGWGGMNPTQSLVDAFEDSEGAPISKSKIYDPTDPFKNRDPRLEVDILHDGEEMYGVTIKVAPLASSGSTGINQHNDATETGYYGQKWLDPSLDPLSDGWNMGKDWVHIRYAEVLLTYAEAKNELQGLDPEAFDAVNQVRRRVGMPELQNTDPSKPTYCATQDDLRQRIRNEWRVEFCLEGGKRMWDIRRWGIAKDVLNAPFEGLKYKIVDNPNDPDKKVDGGKMCILYQGDPIILSGSRYSDNNYLFPVPQSEIDLNPALTQNPGY
# Columns and labels:
# Experiment in all cases: glycan array binding signal (z-score within array); higher = stronger binding
# Conditions in all cases: glycan notation: IUPAC condensed, linker removed
# [1] = biological target: Gal(b1-4)GlcNAc(b1-2)[Gal(b1-4)GlcNAc(b1-6)]Man(a1-6)[GlcNAc(b1-4)][Gal(b1-4)GlcNAc(b1-2)Man(a1-3)]Man(b1-4)GlcNAc(b1-4)GlcNAc
# How it was run: (§1)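 The binding signal is a Z-score computed within each array and averaged over linkers. Arrays of the same protein sequence at different concentrations or buffers were also averaged together. Data originate from 3228 arrays in the Consortium for Functional Glycomics database, kept only where the protein sequence was available.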
# [2] = biological target: Gal(b1-4)GlcNAc(b1-2)[Gal(b1-4)GlcNAc(b1-6)]Man(a1-6)[GlcNAc(b1-4)][Gal(b1-4)GlcNAc(b1-2)[Gal(b1-4)GlcNAc(b1-4)]Man(a1-3)]Man(b1-4)GlcNAc(b1-4)[Fuc(a1-6)]GlcNAc
# How it was run: as §1
# [3] = biological target: Gal(b1-4)GlcNAc(b1-3)Gal(b1-3)GalNAc
# How it was run: as §1
# [4] = biological target: Gal(b1-4)GlcNAc(b1-3)Gal(b1-3)GlcNAc
# How it was run: as §1
# [5] = biological target: Gal(b1-4)GlcNAc(b1-3)Gal(b1-4)Glc
# How it was run: as §1
# [6] = biological target: Gal(b1-4)GlcNAc(b1-3)Gal(b1-4)GlcNAc
# How it was run: as §1
# [7] = biological target: Gal(b1-4)GlcNAc(b1-3)Gal(b1-4)GlcNAc(b1-2)Man(a1-3)[Gal(b1-4)GlcNAc(b1-3)Gal(b1-4)GlcNAc(b1-2)Man(a1-6)]Man(b1-4)GlcNAc(b1-4)GlcNAc
# How it was run: as §1
# [8] = biological target: Gal(b1-4)GlcNAc(b1-3)Gal(b1-4)GlcNAc(b1-2)Man(a1-3)[Gal(b1-4)GlcNAc(b1-3)Gal(b1-4)GlcNAc(b1-2)Man(a1-6)]Man(b1-4)GlcNAc(b1-4)[Fuc(a1-6)]GlcNAc
# How it was run: as §1
# [9] = biological target: Gal(b1-4)GlcNAc(b1-3)Gal(b1-4)GlcNAc(b1-2)[Gal(b1-4)GlcNAc(b1-3)Gal(b1-4)GlcNAc(b1-6)]Man(a1-6)[Gal(b1-4)GlcNAc(b1-3)Gal(b1-4)GlcNAc(b1-2)Man(a1-3)]Man(b1-4)GlcNAc(b1-4)GlcNAc
# How it was run: as §1
# [10] = biological target: Gal(b1-4)GlcNAc(b1-3)Gal(b1-4)GlcNAc(b1-2)[Gal(b1-4)GlcNAc(b1-3)Gal(b1-4)GlcNAc(b1-6)]Man(a1-6)[Gal(b1-4)GlcNAc(b1-3)Gal(b1-4)GlcNAc(b1-2)Man(a1-3)]Man(b1-4)GlcNAc(b1-4)[Fuc(a1-6)]GlcNAc
# How it was run: as §1
# [11] = biological target: Gal(b1-4)GlcNAc(b1-3)Gal(b1-4)GlcNAc(b1-3)Gal(b1-4)GlcNAc
# How it was run: as §1
# [12] = biological target: Gal(b1-4)GlcNAc(b1-3)Gal(b1-4)GlcNAc(b1-3)Gal(b1-4)GlcNAc(b1-2)Man(a1-3)[Gal(b1-4)GlcNAc(b1-3)Gal(b1-4)GlcNAc(b1-3)Gal(b1-4)GlcNAc(b1-2)Man(a1-6)]Man(b1-4)GlcNAc(b1-4)GlcNAc
# How it was run: as §1
# [13] = biological target: Gal(b1-4)GlcNAc(b1-3)Gal(b1-4)GlcNAc(b1-3)Gal(b1-4)GlcNAc(b1-2)Man(a1-3)[Gal(b1-4)GlcNAc(b1-3)Gal(b1-4)GlcNAc(b1-3)Gal(b1-4)GlcNAc(b1-2)Man(a1-6)]Man(b1-4)GlcNAc(b1-4)[Fuc(a1-6)]GlcNAc
# How it was run: as §1
# [14] = biological target: Gal(b1-4)GlcNAc(b1-3)Gal(b1-4)GlcNAc(b1-3)Gal(b1-4)GlcNAc(b1-2)[Gal(b1-4)GlcNAc(b1-3)Gal(b1-4)GlcNAc(b1-3)Gal(b1-4)GlcNAc(b1-6)]Man(a1-6)[Gal(b1-4)GlcNAc(b1-3)Gal(b1-4)GlcNAc(b1-3)Gal(b1-4)GlcNAc(b1-2)Man(a1-3)]Man(b1-4)GlcNAc(b1-4)[Fuc(a1-6)]GlcNAc
# How it was run: as §1
# [15] = biological target: Gal(b1-4)GlcNAc(b1-3)Gal(b1-4)GlcNAc(b1-3)Gal(b1-4)GlcNAc(b1-3)Gal(b1-4)GlcNAc(b1-2)Man(a1-3)[Gal(b1-4)GlcNAc(b1-3)Gal(b1-4)GlcNAc(b1-3)Gal(b1-4)GlcNAc(b1-3)Gal(b1-4)GlcNAc(b1-2)Man(a1-6)]Man(b1-4)GlcNAc(b1-4)GlcNAc
# How it was run: as §1
# [16] = biological target: Gal(b1-4)GlcNAc(b1-3)Gal(b1-4)GlcNAc(b1-3)Gal(b1-4)GlcNAc(b1-3)Gal(b1-4)GlcNAc(b1-2)Man(a1-3)[Gal(b1-4)GlcNAc(b1-3)Gal(b1-4)GlcNAc(b1-3)Gal(b1-4)GlcNAc(b1-3)Gal(b1-4)GlcNAc(b1-2)Man(a1-6)]Man(b1-4)GlcNAc(b1-4)[Fuc(a1-6)]GlcNAc
# How it was run: as §1
# [17] = biological target: Gal(b1-4)GlcNAc(b1-3)Gal(b1-4)GlcNAc(b1-3)Gal(b1-4)GlcNAc(b1-3)Gal(b1-4)GlcNAc(b1-2)[Gal(b1-4)GlcNAc(b1-3)Gal(b1-4)GlcNAc(b1-3)Gal(b1-4)GlcNAc(b1-3)Gal(b1-4)GlcNAc(b1-6)]Man(a1-6)[Gal(b1-4)GlcNAc(b1-3)Gal(b1-4)GlcNAc(b1-3)Gal(b1-4)GlcNAc(b1-3)Gal(b1-4)GlcNAc(b1-2)Man(a1-3)]Man(b1-4)GlcNAc(b1-4)[Fuc(a1-6)]GlcNAc
# How it was run: as §1
# [18] = biological target: Gal(b1-4)GlcNAc(b1-3)Gal(b1-4)GlcNAc(b1-3)Gal(b1-4)GlcNAc(b1-3)Gal(b1-4)GlcNAc(b1-3)Gal(b1-4)GlcNAc(b1-2)Man(a1-3)[Gal(b1-4)GlcNAc(b1-3)Gal(b1-4)GlcNAc(b1-3)Gal(b1-4)GlcNAc(b1-3)Gal(b1-4)GlcNAc(b1-3)Gal(b1-4)GlcNAc(b1-2)Man(a1-6)]Man(b1-4)GlcNAc(b1-4)GlcNAc
# How it was run: as §1
# [19] = biological target: Gal(b1-4)GlcNAc(b1-3)Gal(b1-4)GlcNAc(b1-3)Gal(b1-4)GlcNAc(b1-3)Gal(b1-4)GlcNAc(b1-3)Gal(b1-4)GlcNAc(b1-2)Man(a1-3)[Gal(b1-4)GlcNAc(b1-3)Gal(b1-4)GlcNAc(b1-3)Gal(b1-4)GlcNAc(b1-3)Gal(b1-4)GlcNAc(b1-3)Gal(b1-4)GlcNAc(b1-2)Man(a1-6)]Man(b1-4)GlcNAc(b1-4)[Fuc(a1-6)]GlcNAc
# How it was run: as §1
# [20] = biological target: Gal(b1-4)GlcNAc(b1-3)Gal(b1-4)GlcNAc(b1-3)Gal(b1-4)GlcNAc(b1-3)Gal(b1-4)GlcNAc(b1-3)Gal(b1-4)GlcNAc(b1-2)[Gal(b1-4)GlcNAc(b1-3)Gal(b1-4)GlcNAc(b1-3)Gal(b1-4)GlcNAc(b1-3)Gal(b1-4)GlcNAc(b1-3)Gal(b1-4)GlcNAc(b1-6)]Man(a1-6)[Gal(b1-4)GlcNAc(b1-3)Gal(b1-4)GlcNAc(b1-3)Gal(b1-4)GlcNAc(b1-3)Gal(b1-4)GlcNAc(b1-3)Gal(b1-4)GlcNAc(b1-2)Man(a1-3)]Man(b1-4)GlcNAc(b1-4)[Fuc(a1-6)]GlcNAc
# How it was run: as §1
# [21] = biological target: Gal(b1-4)GlcNAc(b1-3)Gal(b1-4)GlcNAc(b1-3)Gal(b1-4)GlcNAc(b1-3)Gal(b1-4)GlcNAc(b1-3)Gal(b1-4)GlcNAc(b1-3)Gal(b1-4)GlcNAc(b1-2)Man(a1-3)[Gal(b1-4)GlcNAc(b1-3)Gal(b1-4)GlcNAc(b1-3)Gal(b1-4)GlcNAc(b1-3)Gal(b1-4)GlcNAc(b1-3)Gal(b1-4)GlcNAc(b1-3)Gal(b1-4)GlcNAc(b1-2)Man(a1-6)]Man(b1-4)GlcNAc(b1-4)GlcNAc
# How it was run: as §1
# [22] = biological target: Gal(b1-4)GlcNAc(b1-3)Gal(b1-4)GlcNAc(b1-3)GalNAc
# How it was run: as §1
# [23] = biological target: Gal(b1-4)GlcNAc(b1-3)Gal(b1-4)GlcNAc(b1-3)[Gal(b1-4)GlcNAc(b1-3)Gal(b1-4)GlcNAc(b1-6)]GalNAc
# How it was run: as §1
# [24] = biological target: Gal(b1-4)GlcNAc(b1-3)Gal(b1-4)GlcNAc(b1-6)[Gal(b1-3)]GalNAc
# How it was run: as §1
# [25] = biological target: Gal(b1-4)GlcNAc(b1-3)Gal(b1-4)[Fuc(a1-3)]GlcNAc(b1-3)Gal(b1-4)[Fuc(a1-3)]GlcNAc
# How it was run: as §1
# [26] = biological target: Gal(b1-4)GlcNAc(b1-3)GalNAc
# How it was run: as §1
# [27] = biological target: Gal(b1-4)GlcNAc(b1-3)[Fuc(a1-3)GlcNAc(b1-6)]Gal(b1-4)Glc
# How it was run: as §1
# [28] = biological target: Gal(b1-4)GlcNAc(b1-3)[Gal(b1-4)GlcNAc(b1-6)]Gal(b1-4)GlcNAc
# How it was run: as §1
# [29] = biological target: Gal(b1-4)GlcNAc(b1-3)[GlcNAc(b1-6)]Gal(b1-4)GlcNAc
# How it was run: as §1
# [30] = biological target: Gal(b1-4)GlcNAc(b1-6)Gal(b1-4)GlcNAc
# How it was run: as §1
# [31] = biological target: Gal(b1-4)GlcNAc(b1-6)GalNAc
# How it was run: as §1
# [32] = biological target: Gal(b1-4)GlcNAc(b1-6)[Gal(b1-3)]GalNAc
# How it was run: as §1
# [33] = biological target: Gal(b1-4)GlcNAc(b1-6)[Gal(b1-4)GlcNAc(b1-3)]GalNAc
# How it was run: as §1
# Gal(b1-4)GlcNAc6P = biological target: Gal(b1-4)GlcNAc6P
# How it was run: as §1
# Gal(b1-6)Gal = biological target: Gal(b1-6)Gal
# How it was run: as §1
# Gal3S(b1-3)GalNAc = biological target: Gal3S(b1-3)GalNAc
# How it was run: as §1
# Gal3S(b1-3)GlcNAc = biological target: Gal3S(b1-3)GlcNAc
# How it was run: as §1
# [34] = biological target: Gal3S(b1-3)[Fuc(a1-4)]GlcNAc
# How it was run: as §1
binder,measurement,setting,value
B1,glycan array binding signal (z-score),[1],0.201
same,glycan array binding signal (z-score),[2],1.15
same,glycan array binding signal (z-score),[3],-0.108
same,glycan array binding signal (z-score),[4],-0.669
same,glycan array binding signal (z-score),[5],-0.546
same,glycan array binding signal (z-score),[6],0.276
same,glycan array binding signal (z-score),[7],2.63
same,glycan array binding signal (z-score),[8],1.92
same,glycan array binding signal (z-score),[9],2.13
same,glycan array binding signal (z-score),[10],1.62
same,glycan array binding signal (z-score),[11],-0.481
same,glycan array binding signal (z-score),[12],3.79
same,glycan array binding signal (z-score),[13],0.202
same,glycan array binding signal (z-score),[14],4.56
same,glycan array binding signal (z-score),[15],0.385
same,glycan array binding signal (z-score),[16],2.87
same,glycan array binding signal (z-score),[17],0.131
same,glycan array binding signal (z-score),[18],1.45
same,glycan array binding signal (z-score),[19],0.44
same,glycan array binding signal (z-score),[20],1.06
same,glycan array binding signal (z-score),[21],0.756
same,glycan array binding signal (z-score),[22],0.538
same,glycan array binding signal (z-score),[23],2.88
same,glycan array binding signal (z-score),[24],0.478
same,glycan array binding signal (z-score),[25],-0.643
same,glycan array binding signal (z-score),[26],0.083
same,glycan array binding signal (z-score),[27],-0.275
same,glycan array binding signal (z-score),[28],0.572
same,glycan array binding signal (z-score),[29],0.232
same,glycan array binding signal (z-score),[30],0.326
same,glycan array binding signal (z-score),[31],0.811
same,glycan array binding signal (z-score),[32],-0.207
same,glycan array binding signal (z-score),[33],-0.034
same,glycan array binding signal (z-score),Gal(b1-4)GlcNAc6P,-0.642
same,glycan array binding signal (z-score),Gal(b1-6)Gal,-0.212
same,glycan array binding signal (z-score),Gal3S(b1-3)GalNAc,-0.221
same,glycan array binding signal (z-score),Gal3S(b1-3)GlcNAc,0.401
same,glycan array binding signal (z-score),[34],0.094

# Exported as tab-separated lines: part of the list above
binder	measurement	setting	value
B1	glycan array binding signal (z-score)	[17]	0.131
same	glycan array binding signal (z-score)	Gal3S(b1-3)GalNAc	-0.221
